Data published in patent CN109897106A.
These are yes or no findings as the source states them, for the method shown. Some results given as binding are weak or reduced against the parent protein; the word gives no strength.

T1: TRPV3多肽 (TRPV3的一小段多肽, …)
T1 sequence (peptide): CSYYRPREEEAIPHP


Columns and labels:
[1] = target: T1, TRPV3多肽 (TRPV3的一小段多肽, …); test: ELISA
[2] = target: T1, TRPV3多肽 (TRPV3的一小段多肽, …); test: ELISA with nickel-purified TRPV3-VHH6
[3] = target: T1, TRPV3多肽 (TRPV3的一小段多肽, …); test: ELISA, E. coli lysate supernatant on coated TRPV3 peptide, anti-HIS detection

binding [1]	binding [2]	binding [3]	Binder
binds	binds	binds	TRPV3-VHH6 (VHH, not shown: small tags and cut ends) VHH: RWQLVESGGGLVQPGGSLRLSCAASGFTLSTYRMTWVRQAPGKGLEWVSDISPGGGVTSYADTVKGRFTISRDNFKNALYLQMNSLKPEDTAVYYCAKRDLGLRDWGQGTLVTVSA
binds			SEQ ID NO 3 (VHH) VHH: AVQLVESGGGLAQPGGSLRLSCVSSGSVFSQNAMGWYRQVPGKRRELITHIQSGGSTYYADSVKGRFTISRDNAKNTLYLQMNSLKPEDTAVYYCAKRDLGLRDWGQGTLVTVSS
binds			SEQ ID NO 2 (VHH) VHH: MVQLVDSGGGLVQPGGSLRLSCAASGFTSLDYYAFAWFRQAPGKEREGVSCISDSGGSTNYADSVKGRFAISRDNAKNTVYLQMNSLKPEDTAVYYCAKRDLGLRDWGQGTLVTVSS
